Results are given in words; binding and its absence hold for the method and conditions named. Binding seen in cells or lysates may run through a third protein. Some results given as binding are weak or reduced against the parent protein; the word gives no strength.
Key:
[1] = biological target: Insulin-like growth factor 2 mRNA binding protein 2 (mouse (endogenous in neonatal mouse cardiomyocytes)) (UniProt Q5SF07); test: co-IP; neonatal mouse cardiomyocytes lysed in RIPA buffer; immunoprecipitated with AGO2 or IGF2BP2 antibody or the corresponding IgG, Protein A/G Magnetic Beads, washed three times, western blotting
[2] = biological target: Argonaute 2 (mouse (endogenous in neonatal mouse cardiomyocytes)) (UniProt Q8CJG0); test: as above

Chains of the proteins cited; added tags and fusions are not shown.
UniProt Q5SF07: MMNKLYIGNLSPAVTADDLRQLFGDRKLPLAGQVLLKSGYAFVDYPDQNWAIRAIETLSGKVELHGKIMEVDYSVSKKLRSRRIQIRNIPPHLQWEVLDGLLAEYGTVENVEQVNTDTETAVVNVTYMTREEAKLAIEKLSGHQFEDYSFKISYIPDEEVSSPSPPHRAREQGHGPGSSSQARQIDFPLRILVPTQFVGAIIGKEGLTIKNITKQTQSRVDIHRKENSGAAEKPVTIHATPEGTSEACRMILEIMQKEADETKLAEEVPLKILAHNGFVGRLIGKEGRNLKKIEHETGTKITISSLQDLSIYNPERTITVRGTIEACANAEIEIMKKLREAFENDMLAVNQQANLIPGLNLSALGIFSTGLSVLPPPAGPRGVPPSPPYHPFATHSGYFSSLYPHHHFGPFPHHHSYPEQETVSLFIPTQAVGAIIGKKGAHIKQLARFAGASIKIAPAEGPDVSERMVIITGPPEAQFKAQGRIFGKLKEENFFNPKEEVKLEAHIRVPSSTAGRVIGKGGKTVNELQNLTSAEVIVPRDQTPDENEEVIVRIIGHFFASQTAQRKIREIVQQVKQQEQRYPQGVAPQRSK
UniProt Q8CJG0: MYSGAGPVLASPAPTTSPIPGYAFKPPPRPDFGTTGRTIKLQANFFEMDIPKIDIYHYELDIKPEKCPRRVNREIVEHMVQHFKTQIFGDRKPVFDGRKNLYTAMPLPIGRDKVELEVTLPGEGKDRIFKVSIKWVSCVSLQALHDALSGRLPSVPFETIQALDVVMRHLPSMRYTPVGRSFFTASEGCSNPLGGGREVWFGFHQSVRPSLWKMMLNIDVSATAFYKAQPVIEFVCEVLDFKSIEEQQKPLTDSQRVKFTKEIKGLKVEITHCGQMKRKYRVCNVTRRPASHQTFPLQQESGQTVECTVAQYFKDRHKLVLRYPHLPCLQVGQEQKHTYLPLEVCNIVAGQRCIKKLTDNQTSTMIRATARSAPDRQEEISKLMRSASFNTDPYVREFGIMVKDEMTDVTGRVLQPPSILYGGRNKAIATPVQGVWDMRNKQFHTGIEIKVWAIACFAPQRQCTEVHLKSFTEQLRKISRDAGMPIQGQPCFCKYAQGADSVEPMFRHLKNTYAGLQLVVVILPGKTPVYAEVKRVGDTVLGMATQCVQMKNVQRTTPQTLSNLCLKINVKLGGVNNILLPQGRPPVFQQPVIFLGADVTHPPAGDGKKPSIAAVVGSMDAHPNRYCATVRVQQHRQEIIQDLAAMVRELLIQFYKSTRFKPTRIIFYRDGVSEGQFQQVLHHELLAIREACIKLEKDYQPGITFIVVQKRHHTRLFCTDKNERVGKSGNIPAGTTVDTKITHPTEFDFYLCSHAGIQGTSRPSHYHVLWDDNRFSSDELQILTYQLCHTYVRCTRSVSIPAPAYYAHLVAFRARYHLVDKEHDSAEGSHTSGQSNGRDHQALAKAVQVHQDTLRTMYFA

binding [1]	binding [2]	Substance
binds	–	Argonaute 2 (from UniProt Q8CJG0 1-860)
–	binds	Insulin-like growth factor 2 mRNA binding protein 2 (from UniProt Q5SF07 1-592)

From paper PMC8257704
